{"source": "patent US9828389B2", "about": "“Tetrazolinone compounds and their use as pesticides” (SUMITOMO CHEMICAL COMPANY, LIMITED, priority 2012, dated 2017)", "key": {"[1]": {"tested_on": "rice blast fungi (Magnaporthe grisea)", "type": "in vivo", "details": "rice (cv; Nipponbare), 6 days in contact with infected seedlings"}, "[2]": {"tested_on": "wheat rust fungi (Puccinia recondita)", "assay": "Wheat rust control test, foliar spray on wheat", "type": "in vivo", "details": "wheat (cv; Shirogane), inoculated after 5 days, observed after 1+8 days", "experimental": "The spores of wheat rust fungi (Puccinia recondita) were sprinkling-inoculated. After inoculation, the plants were placed under a dark and humid condition at 23° C. for 1 day and were then cultivated at 20° C. under lighting for 8 days and a lesion area was observed."}}, "note": "Read-outs that look alike come from different tables or passages of the source. Some entries share one result that the patent states for a list of compounds.", "data": [{"smiles": "Cc1cc(C)n(-c2ccc(OCc3c(Cl)cccc3-n3nnn(C)c3=O)c(Cl)c2)n1", "note": "[Present compound 9, 1-{3-chloro-2-[2-chloro-4-(3,5-dimethyl-pyrazol-1-yl)-phenoxymethyl]-phenyl}-4-methyl-1,4-dihydrotetrazole-5-one]", "values": [{"measurement": "lesion area compared to the lesion area in untreated plants", "setting": "[1]; foliar spray 200 ppm", "value": "≤ 30", "unit": "%"}]}, {"smiles": "Cc1nn(-c2ccc(OCc3c(Cl)cccc3-n3nnn(C)c3=O)c(Cl)c2)c(C)c1C", "note": "[Present compound 10, 1-{3-chloro-2-[2-chloro-4-(3,4,5-trimethyl-pyrazol-1-yl)-phenoxymethyl]-phenyl}-4-methyl-1,4-dihydrotetrazole-5-one]", "values": [{"measurement": "lesion area compared to the lesion area in untreated plants", "setting": "[1]; foliar spray 200 ppm", "value": "≤ 30", "unit": "%"}]}, {"smiles": "Cc1cc(C)n(-c2ccc(OCc3c(Cl)cccc3-n3nnn(C)c3=O)cc2Cl)n1", "note": "[Present compound 11, 1-{3-chloro-2-[3-chloro-4-(3,5-dimethyl-pyrazol-1-yl)-phenoxymethyl]-phenyl}-4-methyl-1,4-dihydrotetrazole-5-one]", "values": [{"measurement": "lesion area compared to the lesion area in untreated plants", "setting": "[1]; foliar spray 200 ppm", "value": "≤ 30", "unit": "%"}]}, {"smiles": "Cc1cc(-n2cccn2)ccc1OCc1c(Cl)cccc1-n1nnn(C)c1=O", "note": "[Present compound 14, 1-{3-chloro-2-(2-methyl-4-pyrazol-1-yl-phenoxymethyl)-phenyl}-4-methyl-1,4-dihydrotetrazole-5-one]", "values": [{"measurement": "lesion area compared to the lesion area in untreated plants", "setting": "[1]; foliar spray 200 ppm", "value": "≤ 30", "unit": "%"}]}, {"smiles": "Cc1cc(C)n(-c2ccc(OCc3c(C)cccc3-n3nnn(C)c3=O)cc2Cl)n1", "note": "[Present compound 18, 1-{3-methyl-2-[3-chloro-4-(3,5-dimethyl-pyrazol-1-yl)-phenoxymethyl]-phenyl}-4-methyl-1,4-dihydrotetrazole-5-one]", "values": [{"measurement": "lesion area compared to the lesion area in untreated plants", "setting": "[1]; foliar spray 200 ppm", "value": "≤ 30", "unit": "%"}]}, {"smiles": "Cc1cc(-n2cc(Cl)cn2)ccc1OCc1c(C)cccc1-n1nnn(C)c1=O", "note": "[Present compound 27, 1-{3-methyl-2-(2-methyl-4-(4-chloro-pyrazol-1-yl)-phenoxymethyl]-phenyl}-4-methyl-1,4-dihydrotetrazole-5-one]", "values": [{"measurement": "lesion area compared to the lesion area in untreated plants", "setting": "[1]; foliar spray 200 ppm", "value": "≤ 30", "unit": "%"}]}, {"smiles": "Cc1cccc(-n2nnn(C)c2=O)c1COc1ccc(-c2cnn(C)c2)cc1Cl", "note": "[Present compound 34, 1-{3-methyl-2-[2-chloro-4-(1-methyl-1H-pyrazole-4-yl)-phenoxymethyl]-phenyl}-4-methyl-1,4-dihydrotetrazole-5-one]", "values": [{"measurement": "lesion area compared to the lesion area in untreated plants", "setting": "[1]; foliar spray 500 ppm", "value": "≤ 30", "unit": "%"}]}, {"smiles": "Cc1ccn(-c2ccc(OCc3c(C)cccc3-n3nnn(C)c3=O)c(C)c2C)n1", "note": "[Present compound 36, 1-{3-methyl-2-[2,3-dimethyl-4-(3-methyl-pyrazol-1-yl)-phenoxymethyl]-phenyl}-4-methyl-1,4-dihydrotetrazole-5-one]", "values": [{"measurement": "lesion area compared to the lesion area in untreated plants", "setting": "[1]; foliar spray 500 ppm", "value": "≤ 30", "unit": "%"}]}, {"smiles": "COc1cccc(-n2nnn(C)c2=O)c1COc1ccc(-n2ccc(C)n2)cc1Cl", "note": "[Present compound 64, 1-{3-methoxy-2-[2-chloro-4-(3-methyl-pyrazol-1-yl)-phenoxymethyl]-phenyl}-4-methyl-1,4-dihydrotetrazole-5-one]", "values": [{"measurement": "lesion area compared to the lesion area in untreated plants", "setting": "[1]; foliar spray 500 ppm", "value": "≤ 30", "unit": "%"}]}, {"smiles": "CCCCn1cc(-c2ccc(OCc3c(OC)cccc3-n3nnn(C)c3=O)c(C)c2)cn1", "note": "[Present compound 78, 1-{3-methoxy-2-[2-methyl-4-(1-butyl-1H-pyrazole-4-yl)-phenoxymethyl]-phenyl}-4-methyl-1,4-dihydrotetrazole-5-one]", "values": [{"measurement": "lesion area compared to the lesion area in untreated plants", "setting": "[1]; foliar spray 500 ppm", "value": "≤ 30", "unit": "%"}]}, {"smiles": "COc1cccc(-n2nnn(C)c2=O)c1COc1ccc(-c2cc[nH]n2)cc1C", "note": "[Present compound 97, 1-{3-methoxy-2-[2-methyl-4-(1H-pyrazol-3-yl)-phenoxymethyl]-phenyl}-4-methyl-1,4-dihydrotetrazole-5-one]", "values": [{"measurement": "lesion area compared to the lesion area in untreated plants", "setting": "[1]; foliar spray 200 ppm", "value": "≤ 30", "unit": "%"}]}, {"smiles": "Cc1cc(-c2nn(C)c(C)c2C)ccc1OCc1c(Br)cccc1-n1nnn(C)c1=O", "note": "[Present compound 167, 1-{3-bromo-2-[2-methyl-4-(1,4,5-trimethyl-1H-pyrazol-3-yl)-phenoxymethyl]-phenyl}-4-methyl-1,4-dihydrotetrazole-5-one]", "values": [{"measurement": "lesion area compared to the lesion area in untreated plants", "setting": "[2]; foliar spray 200 ppm", "value": "≤ 30", "unit": "%"}, {"measurement": "lesion area compared to the lesion area in untreated plants", "setting": "[2]; foliar spray 500 ppm", "value": "≤ 30", "unit": "%"}]}, {"smiles": "COc1cccc(-n2nnn(C)c2=O)c1COc1ccc(-c2nn(C)c(Cl)c2C)cc1C", "note": "[Present compound 168, 1-{3-methoxy-2-[2-methyl-4-(5-chloro-1,4-dimethyl-1H-pyrazol-3-yl)-phenoxymethyl]-phenyl}-4-methyl-1,4-dihydrotetrazole-5-one]", "values": [{"measurement": "lesion area compared to the lesion area in untreated plants", "setting": "[2]; foliar spray 200 ppm", "value": "≤ 30", "unit": "%"}, {"measurement": "lesion area compared to the lesion area in untreated plants", "setting": "[2]; foliar spray 500 ppm", "value": "≤ 30", "unit": "%"}]}, {"smiles": "CCc1c(C)nn(-c2ccc(OCc3c(C)cccc3-n3nnn(C)c3=O)c(C)c2)c1C", "note": "[Present compound 170, 1-{3-methyl-2-[2-methyl-4-(3,5-dimethyl-4-ethyl-1H-pyrazol-3-yl)-phenoxymethyl]-phenyl}-4-methyl-1,4-dihydrotetrazole-5-one]", "values": [{"measurement": "lesion area compared to the lesion area in untreated plants", "setting": "[2]; foliar spray 200 ppm", "value": "≤ 30", "unit": "%"}, {"measurement": "lesion area compared to the lesion area in untreated plants", "setting": "[2]; foliar spray 500 ppm", "value": "≤ 30", "unit": "%"}]}, {"smiles": "CCc1cccc(-n2nnn(C)c2=O)c1COc1ccc(-n2nc(C)c(CC)c2C)cc1C", "note": "[Present compound 171, 1-{3-ethyl-2-[2-methyl-4-(3,5-dimethyl-4-ethyl-1H-pyrazol-3-yl)-phenoxymethyl]-phenyl}-4-methyl-1,4-dihydrotetrazole-5-one]", "values": [{"measurement": "lesion area compared to the lesion area in untreated plants", "setting": "[2]; foliar spray 200 ppm", "value": "≤ 30", "unit": "%"}, {"measurement": "lesion area compared to the lesion area in untreated plants", "setting": "[2]; foliar spray 500 ppm", "value": "≤ 30", "unit": "%"}]}, {"smiles": "CCc1c(C)nn(-c2ccc(OCc3c(OC)cccc3-n3nnn(C)c3=O)c(C)c2)c1C", "note": "[Present compound 172, 1-{3-methoxy-2-[2-methyl-4-(3,5-dimethyl-4-ethyl-1H-pyrazol-3-yl)-phenoxymethyl]-phenyl}-4-methyl-1,4-dihydrotetrazole-5-one]", "values": [{"measurement": "lesion area compared to the lesion area in untreated plants", "setting": "[2]; foliar spray 200 ppm", "value": "≤ 30", "unit": "%"}, {"measurement": "lesion area compared to the lesion area in untreated plants", "setting": "[2]; foliar spray 500 ppm", "value": "≤ 30", "unit": "%"}]}, {"smiles": "CCc1c(C)nn(-c2ccc(OCc3c(Cl)cccc3-n3nnn(C)c3=O)c(C)c2)c1C", "note": "[Present compound 173, 1-{3-chloro-2-[2-methyl-4-(3,5-dimethyl-4-ethyl-1H-pyrazol-3-yl)-phenoxymethyl]-phenyl}-4-methyl-1,4-dihydrotetrazole-5-one]", "values": [{"measurement": "lesion area compared to the lesion area in untreated plants", "setting": "[2]; foliar spray 200 ppm", "value": "≤ 30", "unit": "%"}, {"measurement": "lesion area compared to the lesion area in untreated plants", "setting": "[2]; foliar spray 500 ppm", "value": "≤ 30", "unit": "%"}]}, {"smiles": "CCc1c(C)nn(-c2ccc(OCc3c(Br)cccc3-n3nnn(C)c3=O)c(C)c2)c1C", "note": "[Present compound 174, 1-{3-bromo-2-[2-methyl-4-(3,5-dimethyl-4-ethyl-1H-pyrazol-3-yl)-phenoxymethyl]-phenyl}-4-methyl-1,4-dihydrotetrazole-5-one]", "values": [{"measurement": "lesion area compared to the lesion area in untreated plants", "setting": "[2]; foliar spray 200 ppm", "value": "≤ 30", "unit": "%"}, {"measurement": "lesion area compared to the lesion area in untreated plants", "setting": "[2]; foliar spray 500 ppm", "value": "≤ 30", "unit": "%"}]}, {"smiles": "CCC(=O)c1ccc(OCc2c(C)cccc2-n2nnn(C)c2=O)c(C)c1", "note": "[Present compound 179, 1-[2-(2-methyl-4-propionyl-phenoxymethyl]-3-methyl-phenyl)-4-methyl-1,4-dihydrotetrazole-5-one]", "values": [{"measurement": "lesion area compared to the lesion area in untreated plants", "setting": "[2]; foliar spray 200 ppm", "value": "≤ 30", "unit": "%"}]}, {"smiles": "CCOc1c(C=O)c(-c2ccc(OCc3c(C)cccc3-n3nnn(C)c3=O)c(C)c2)nn1C", "note": "[Present compound 217, 1-{3-methyl-2-[2-methyl-4-(4-formyl-5-ethoxy-1-methyl-1H-pyrazol-3-yl)-phenoxymethyl]-phenyl}-4-methyl-1,4-dihydrotetrazole-5-one]", "values": [{"measurement": "lesion area compared to the lesion area in untreated plants", "setting": "[2]; foliar spray 200 ppm", "value": "≤ 30", "unit": "%"}]}, {"smiles": "CCCCc1c(C)nn(-c2ccc(OCc3c(C)cccc3-n3nnn(C)c3=O)c(C)c2)c1C", "note": "[Present compound 219, 1-{3-methyl-2-[2-methyl-4-(4-butyl-3,5-dimethyl-pyrazol-1-yl)-phenoxymethyl]-phenyl}-4-methyl-1,4-dihydrotetrazole-5-one]", "values": [{"measurement": "lesion area compared to the lesion area in untreated plants", "setting": "[2]; foliar spray 200 ppm", "value": "≤ 30", "unit": "%"}]}, {"smiles": "Cc1cc(-c2nn(C)c(C)c2Cl)ccc1OCc1c(F)cccc1-n1nnn(C)c1=O", "note": "[Present compound 227, 1-{3-fluoro-2-[2-methyl-4-(4-chloro-1,5-dimethyl-1H-pyrazol-3-yl)-phenoxymethyl]-phenyl}-4-methyl-1,4-dihydrotetrazole-5-one]", "values": [{"measurement": "lesion area compared to the lesion area in untreated plants", "setting": "[2]; foliar spray 200 ppm", "value": "≤ 30", "unit": "%"}]}, {"smiles": "Cc1cc(-c2nn(C)c(OCC(F)F)c2C)ccc1OCc1c(C)cccc1-n1nnn(C)c1=O", "note": "[Present compound 241, 1-(3-methyl-2-{2-methyl-4-[5-(2,2-difluoromethoxy)-1,4-dimethyl-1H-pyrazol-3-yl)-phenoxymethyl]-phenyl}-4-methyl-1,4-dihydrotetrazole-5-one]", "values": [{"measurement": "lesion area compared to the lesion area in untreated plants", "setting": "[2]; foliar spray 200 ppm", "value": "≤ 30", "unit": "%"}]}, {"smiles": "Cc1cc(-c2nn(C)c(S(C)(=O)=O)c2C)ccc1OCc1c(C)cccc1-n1nnn(C)c1=O", "note": "[Present compound 242, 1-{3-methyl-2-[2-methyl-4-(1,4-dimethyl-5-methyl-sulfonyl-1H-pyrazol-3-yl)-phenoxymethyl]-phenyl}-4-methyl-1,4-dihydrotetrazole-5-one]", "values": [{"measurement": "lesion area compared to the lesion area in untreated plants", "setting": "[2]; foliar spray 200 ppm", "value": "≤ 30", "unit": "%"}]}, {"smiles": "Cc1cc(-c2nn(C)c([S+](C)[O-])c2C)ccc1OCc1c(C)cccc1-n1nnn(C)c1=O", "note": "(stereo not shown) [Present compound 243, 1-{3-methyl-2-[2-methyl-4-(1,4-dimethyl-5-methyl-sulfinyl-1H-pyrazol-3-yl)-phenoxymethyl]-phenyl}-4-methyl-1,4-dihydrotetrazole-5-one]", "values": [{"measurement": "lesion area compared to the lesion area in untreated plants", "setting": "[2]; foliar spray 200 ppm", "value": "≤ 30", "unit": "%"}]}, {"smiles": "Cc1cc(-c2ccn(C)n2)c(C)cc1OCc1c(C)cccc1-n1nnn(C)c1=O", "note": "[Present compound 245, 1-{2-[2,5-dimethyl-4-(1-methyl-1H-pyrazol-3-yl)-phenoxymethyl]-3-methyl-phenyl}-4-methyl-1,4-dihydrotetrazole-5-one]", "values": [{"measurement": "lesion area compared to the lesion area in untreated plants", "setting": "[2]; foliar spray 200 ppm", "value": "≤ 30", "unit": "%"}]}, {"smiles": "Cc1cc(-c2nn(C)c(C)c2Br)ccc1OCc1c(C)cccc1-n1nnn(C)c1=O", "note": "[Present compound 250, 1-{3-methyl-2-[2-methyl-4-(4-bromo-1,5-dimethyl-1H-pyrazol-3-yl)-phenoxymethyl]-phenyl}-4-methyl-1,4-dihydrotetrazole-5-one]", "values": [{"measurement": "lesion area compared to the lesion area in untreated plants", "setting": "[2]; foliar spray 200 ppm", "value": "≤ 30", "unit": "%"}]}]}
